Measurements from patent publication US20230074223A1, “COMPOSITIONS AND METHODS FOR THE TREATMENT OF MASTITIS” (SOCIETE DES PRODUITS NESTLE S.A., priority 2019, published 2023).

B1: Alpha-lactalbumin: major human milk protein (protein, UniProt P00709 20-142, looked up)
Alpha-lactalbumin: KQFTKCELSQLLKDIDGYGGIALPELICTMFHTSGYDTQAIVENNESTEYGLFQISNKLWCKSSQVPQSRNICDISCDKFLDDDITDDIMCAKKILDIKGIDYWLAHKALCTEKLEQWLCEKL
B2: Lactoferrin: major human milk protein (protein, UniProt P02788 20-710, looked up)
Lactotransferrin: GRRRSVQWCAVSQPEATKCFQWQRNMRKVRGPPVSCIKRDSPIQCIQAIAENRADAVTLDGGFIYEAGLAPYKLRPVAAEVYGTERQPRTHYYAVAVVKKGGSFQLNELQGLKSCHTGLRRTAGWNVPIGTLRPFLNWTGPPEPIEAAVARFFSASCVPGADKGQFPNLCRLCAGTGENKCAFSSQEPYFSYSGAFKCLRDGAGDVAFIRESTVFEDLSDEAERDEYELLCPDNTRKPVDKFKDCHLARVPSHAVVARSVNGKEDAIWNLLRQAQEKFGKDKSPKFQLFGSPSGQKDLLFKDSAIGFSRVPPRIDSGLYLGSGYFTAIQNLRKSEEEVAARRARVVWCAVGEQELRKCNQWSGLSEGSVTCSSASTTEDCIALVLKGEADAMSLDGGYVYTAGKCGLVPVLAENYKSQQSSDPDPNCVDRPVEGYLAVAVVRRSDTSLTWNSVKGKKSCHTAVDRTAGWNIPMGLLFNQTGSCKFDEYFSQSCAPGSDPRSNLCALCIGDEQGENKCVPNSNERYYGYTGAFRCLAENAGDVAFVKDVTVLQNTDGNNNEAWAKDLKLADFALLCLDGKRKPVTEARSCHLAMAPNHAVVSRMDKVERLKQVLLHQQAKFGRNGSDCPDKFCLFQSETKNLLFNDNTECLARLHGKTTYEKYLGPQYVAGITNLKKCSTSPLLEACEFLRK

Assay: Protein concentrations of human milk by SCM status (LabChip)
Details: for Concentration in milk of women with sub-clinical mastitis in comparison to normal women: in words

Molecule | Concentration of human milk (Any SCM, Day 2) [ng/µL] | Concentration of human milk (Any SCM, Day 17) [ng/µL] | Concentration of human milk (Any SCM, Day 30) [ng/µL] | Concentration of human milk (Any SCM, Day 60) [ng/µL] | Concentration of human milk (Any SCM, Day 90) [ng/µL] | Concentration of human milk (Any SCM, Day 120) [ng/µL] | Concentration of human milk (Normal, Day 2) [ng/µL] | Concentration of human milk (Normal, Day 17) [ng/µL] | Concentration of human milk (Normal, Day 30) [ng/µL] | Concentration of human milk (Normal, Day 60) [ng/µL] | Concentration of human milk (Normal, Day 90) [ng/µL] | Concentration of human milk (Normal, Day 120) [ng/µL] | Concentration in milk of women with sub-clinical mastitis in comparison to normal women
B1 | 3232.8 ± 685.0 | 3131.2 ± 548.4 | 2893.1 ± 506.6 | 2469.0 ± 466.5 | 2249.5 ± 422.3 | 2089.4 ± 415.8 | 3043.6 ± 597.1 | 3036.6 ± 544.4 | 2740.7 ± 499.1 | 2278.1 ± 372.4 | 2126.7 ± 374.1 | 2015.8 ± 378.0 | higher concentrations
B2 | 7053.9 ± 3832.6 | 3315.6 ± 2486.1 | 2430.8 ± 2176.9 | 1757.1 ± 955.4 | 1543.1 ± 699.2 | 1510.4 ± 1502.3 | 5340.2 ± 2372.7 | 2379.4 ± 913.4 | 1765.9 ± 680.7 | 1339.0 ± 485.6 | 1298.6 ± 810.1 | 1468.2 ± 3269.1 | higher concentrations
